No constants are given. Whether binding was seen depends on the method and setting. Binding seen in cells or lysates may run through a third protein. Some binding calls cover weakened binding; strength is not graded here.

The target of the assay is T1, STimulator of INterferon Gene (STING) (mouse (endogenous in BMDMs)) (UniProt Q3TBT3).
T1 sequence: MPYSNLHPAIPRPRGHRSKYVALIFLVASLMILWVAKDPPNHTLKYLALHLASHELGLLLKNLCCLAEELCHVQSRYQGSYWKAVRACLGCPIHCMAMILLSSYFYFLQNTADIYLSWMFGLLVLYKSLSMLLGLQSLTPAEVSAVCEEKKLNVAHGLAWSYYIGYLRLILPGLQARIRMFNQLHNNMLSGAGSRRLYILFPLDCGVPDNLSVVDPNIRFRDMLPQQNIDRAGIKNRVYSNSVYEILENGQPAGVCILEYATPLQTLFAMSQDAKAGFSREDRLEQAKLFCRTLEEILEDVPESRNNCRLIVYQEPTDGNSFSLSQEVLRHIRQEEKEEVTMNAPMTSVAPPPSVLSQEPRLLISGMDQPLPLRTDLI
In words: co-IP.

B1: Heme oxygenase-1 (protein, UniProt P14901 1-289)
chain: MERPQPDSMPQDLSEALKEATKEVHIQAENAEFMKNFQKGQVSREGFKLVMASLYHIYTALEEEIERNKQNPVYAPLYFPEELHRRAALEQDMAFWYGPHWQEIIPCTPATQHYVKRLHEVGRTHPELLVAHAYTRYLGDLSGGQVLKKIAQKAMALPSSGEGLAFFTFPNIDSPTKFKQLYRARMNTLEMTPEVKHRVTEEAKTAFLLNIELFEELQVMLTEEHKDQSPSQMASLRQRPASLVQDTAPAETPRGKPQISTSSSQTPLLQWVLTLSFLLATVAVGIYAM
Take B1: the binding entry was “binds”.

(Values after doi:10.1101/2025.10.25.683839.)
